Laboratory results published in PubChem BioAssay AID504467 (National Center for Advancing Translational Sciences (NCATS), 2011).
Hit rate of the full screen: of about 330,000 compounds, about 7,700 (2.3%) were called active. The shares of active, inactive and inconclusive entries below differ from those in the screen. The call rests on the fitted dose curve; in most records, active means well fitted inhibition curve with a large enough effect; inconclusive means small, poorly fitted or top-dose-only effect, or effect the other way; inactive means flat fitted curve, though single readings scatter. Potencies beside an inconclusive call are fits to weak or partial responses and may not hold up.

assay: qHTS screen for small molecules that inhibit ELG1-dependent DNA repair in human embryonic kidney (HEK293T) cells expressing luciferase-tagged ELG1; settings: HEK293T ELG1-luciferase reporter, luminescence, 16 h, DNA damage induced by 5-fluorouridine; activity change, negative = inhibition: at 46.1 µM (top of the series); further: nearly all actives have a fitted effect of over 55% in size
Summary of the method: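 Quantitative HTS, concentration-response format. 2,000 cells/well co-treated with 5-fluorouridine and compound, 16 hr in 5% CO2 at 37 °C; ONE-Glo luminescence read after 30 min.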
On the % scale 0 is the no-effect control and ±100 the full control effect; potency means the concentration at half of the fitted maximal effect.

Structure (SMILES)	activity change, negative = inhibition	Potency
CC(C)CC(=O)N1CCC(O)(CS(=O)(=O)c2ccc(Cl)c(Cl)c2)CC1	inactive: -15.3%	–
COc1ccc([N+](=O)[O-])cc1N(CC(=O)N1CCOCC1)S(C)(=O)=O	inactive: 8.13%	–
CCc1ccc(NC(=O)C2CCN(S(=O)(=O)c3ccc4c(c3)N(C(C)=O)CCO4)CC2)cc1	inactive: -1.25%	–
Fc1ccc2cc(-c3ccccc3)ncc2c1	–	inconclusive: 13 µM [activator, partial curve]
CCOC(=O)[C@H]1[C@H]2COc3ccccc3[C@@H]2N2C(=O)c3cc(Cl)ccc3NC(=O)[C@@]12C	inactive: 13.7%	–
CCCCC(=O)Nc1ccc2c(c1)nc(CN1CCN(C(=O)OCC)CC1)n2C	–	inconclusive: 18.3 µM [inhibitor, single point]
C=CCNC(=S)NNC(=O)c1cccn(Cc2ccc(Cl)cc2Cl)c1=O	inactive: -18.7%	–
Cc1nc2c(C)cccc2c2c1CCN2c1ccccc1F	inactive: -16.7%	–
c1csc(-c2ccn[nH]2)c1	–	inconclusive: 36.6 µM [activator, partial curve, poor fit]
N=C(N)SCP(=O)(c1ccccc1)c1ccccc1	–	inconclusive: 29.1 µM [inhibitor, single point]
NC(=O)c1sc2nc(N3CCCCC3)c3c(c2c1N)CCCC3	–	inconclusive: 29.1 µM [inhibitor, single point]
O=C(Nc1ccc(NC(=O)c2cccs2)c(Cl)c1)c1cccs1	–	inconclusive: 20.6 µM [activator, partial curve]
O=C(COC(=O)c1ccccc1Cc1ccccc1)Nc1ccc(SC(F)F)cc1	–	inconclusive: 9.2 µM [activator, partial curve]
COC(=O)c1cc(NC(=O)C2(S(=O)(=O)c3ccc(Cl)cc3)CC2)cc(C(=O)OC)c1	–	inconclusive: 29.1 µM [inhibitor, single point]
CC(C)CN(C(=O)Cn1c(=O)cnc2ccccc21)C1CCS(=O)(=O)C1 (stereo not given)	–	inconclusive: 16.4 µM [activator, partial curve, poor fit]
Cc1ccc(SCn2nnc3ccccc3c2=O)c(C)c1	–	inconclusive: 11.6 µM [activator, partial curve]
Brc1ccc(-c2nnc(-c3ccccc3Br)o2)cc1	–	inconclusive: 5.17 µM [activator, single point]
CCOC(=O)C1=C(C)N=c2s/c(=C\c3ccc(OCC(=O)O)cc3)c(=O)n2C1c1ccccc1OC (stereo not given)	inactive: -6%	–
CCCCc1ccc(NC(=O)Nc2cccnc2)cc1	–	inconclusive: 18.3 µM [activator, partial curve]
N#C/C(=C/c1ccc(O)c(O)c1)c1nc2ccccc2[nH]1	–	inconclusive: 5.8 µM [activator, full curve]
COc1cccc(/C=C/C(=O)OCC(=O)c2ccc(S(=O)(=O)N3CCCCC3)cc2)c1OC	–	inconclusive: 18.3 µM [inhibitor, partial curve, poor fit]
OCC[C@H]1C[C@H](O)[C@@H](O)[C@]2(OCCc3ccccc32)O1	inactive: 2.6%	–
Cn1nc(C(=O)OCc2ccc(Br)cc2F)c2ccccc2c1=O	–	inconclusive: 18.3 µM [inhibitor, single point]
COc1ccc(-c2cc(=O)oc3cc(OC(C)C(=O)NC4CC4)ccc23)cc1 (stereo not given)	inactive: 8.37%	–

Structure (SMILES)	activity change, negative = inhibition	Potency
N#C/C(=C\c1ccccc1)c1nc2ncccc2[nH]1	inactive: 3.97%	–
CCC(C)(C)NC(=O)c1sccc1Oc1ccc(F)cc1[N+](=O)[O-]	–	inconclusive: 25.9 µM [inhibitor, partial curve, poor fit]
C=CCC1c2cccc(C(=O)O)c2C(=O)N1c1ccc(Cl)cc1 (stereo not given)	inactive: 1.04%	–
CCOCCCNC(=O)c1c[nH]c2c(CC)cccc2c1=O	–	inconclusive: 25.9 µM [inhibitor, partial curve, poor fit]
CC(C)c1nc(SCC(=O)N2CCc3ccccc32)n[nH]1	–	inconclusive: 20.6 µM [activator, partial curve]
CCc1cccc(CC)c1NC(=O)CN1CCN(S(=O)(=O)c2ccccc2)CC1	inactive: -19.6%	–
CCOC(=O)C1C(=O)CC(C)(O)C(C(=O)OCC)C1c1cccc(OC(F)(F)C(F)F)c1 (stereo not given)	–	inconclusive: 31.6 µM [activator, single point]
O=c1cc(COc2ccc(Cl)c(Cl)c2)nc2sccn12	–	inconclusive: 7.3 µM [activator, partial curve]
O=C(Nc1ccc(N2CCN(C(=O)c3ccccc3)CC2)c(Cl)c1)c1ccc(Br)o1	–	active: 11.6 µM
O=[N+]([O-])c1ccc(CN2CCCCCC2)cc1	inactive: -1.97%	–
C=CCC1(C#N)C(SC)=NC2=C(C(=O)CC(C)(C)C2)C1c1ccc(Br)cc1 (stereo not given)	inactive: 8.15%	–
Cc1sc(NC(=O)c2cc(-c3ccccc3)nc3ccccc23)c(C(N)=O)c1C	–	active: 5.8 µM
CCOc1ccc(NC(=O)CC2SC(=O)N(c3ccccc3)C2=O)cc1 (stereo not given)	–	inconclusive: 14.6 µM [activator, partial curve]
Cc1ccc(CC(=O)Nc2ccc([N+](=O)[O-])cc2C)cc1	–	inconclusive: 29.1 µM [inhibitor, single point]
CCOn1c(=O)c(=O)n(OCc2ccccc2)c2ccccc21	inactive: 2.23%	–
O=c1c(-c2ccccc2)n[nH]c2ccccc12	–	inconclusive: 3.66 µM [activator, full curve]
COc1ccc(CCNC(=O)c2cc3c(F)cccc3s2)cc1OC	–	inconclusive: 18.3 µM [inhibitor, partial curve, poor fit]
Cc1ccc(Cl)cc1NC(=O)COC(=O)C12CC3CC(CC(C3)C1)C2	–	inconclusive: 25.9 µM [inhibitor, single point]
COC(=O)c1c(CSc2ccc(C)c(C)c2)noc1C(=O)NCc1ccc(OC)cc1	–	inconclusive: 20.6 µM [inhibitor, single point]
O=C(NCC1CCCO1)C1CCCN1C(=O)Nc1ccc(Cl)cc1 (stereo not given)	inactive: 16%	–
COc1ccc(C2=COc3ccccc3C(=O)N2)cc1	–	inconclusive: 29.1 µM [activator, single point]
C=CCN1C(=O)[C@H]2CCC=C[C@H]2[C@@H]1c1cccc(C)c1	–	inconclusive: 29.1 µM [inhibitor, single point]
Cc1c(C(=O)N2CCN(Cc3ccc4c(c3)OCO4)CC2)sc2ncnc(N3CCN(c4ccccc4F)CC3)c12	–	active: 6.51 µM
COc1ccc(NC(=S)NCCc2c(C)[nH]c3ccc(OC)cc23)cc1	–	inconclusive: 20.6 µM [inhibitor, single point]

Structure (SMILES)	activity change, negative = inhibition	Potency
O=C(c1cccs1)N(C(=O)c1cccs1)c1ccc(Br)cn1	–	inconclusive: 2.06 µM [activator, partial curve]
NC(N)=NS(=O)(=O)c1ccc(NC(=S)NC(=O)c2ccncc2)cc1	inactive: 10.6%	–
Cc1ccc(S(=O)(=O)c2nc(S(C)(=O)=O)sc2N2CCCCC2C)cc1 (stereo not given)	–	inconclusive: 23.1 µM [inhibitor, partial curve, poor fit]
CCN(CC)C1=CC(=[N+]2CCCC2)CC(C)(C)C1	inactive: -15.3%	–
CCCC(=O)Nc1ccc(C(=O)NN=C(C2CC2)C2CC2)cc1	inactive: -7.36%	–
CSc1ccccc1C(=O)Nc1nc2ccccc2c(=O)[nH]1	–	inconclusive: 29.1 µM [activator, single point]
CCn1c(=O)c([N+](=O)[O-])c(NCC(O)c2ccccc2)c2ccccc21 (stereo not given)	–	inconclusive: 14.6 µM [inhibitor, partial curve, poor fit]
COc1ccc(C(=O)NC(=O)Nc2cc(C)ccn2)cc1	–	inconclusive: 0.517 µM [activator, partial curve]
CC(=O)Nc1ccc(-c2csc(NC(=O)Nc3ccccc3)n2)cc1	–	active: 7.3 µM
CCc1nnc(NC(=O)CSc2nc3c(c(=O)n2-c2ccccc2OC)SCC3)s1	–	active: 20.6 µM
COc1ccc(-c2cc3c(=O)n(CC(=O)Nc4cccc(Cl)c4)ncn3n2)cc1	–	inconclusive: 23.1 µM [activator, partial curve, poor fit]
Cn1c(=O)cc(OCCCC(=O)NC2CCCC2)c2ccccc21	–	inconclusive: 8.2 µM [activator, partial curve]
O=C(NCc1nc2ccccc2[nH]1)C1=C[C@@H](c2ccc3c(c2)OCO3)C[C@@H](OCc2ccc(CO)cc2)O1	–	inconclusive: 29.1 µM [inhibitor, single point]
O=[N+]([O-])c1ccc(N2CCOCC2)cc1NCc1ccccc1	–	inconclusive: 35.5 µM [activator, single point]
COc1ccc([N+](=O)[O-])cc1NC(=O)C(C)N(C)Cc1cccc(OC)c1OC (stereo not given)	–	active: 9.2 µM
COc1ccc(CNC(=O)C(c2ccc(O)cc2)N(Cc2ccco2)C(=O)c2snc(C(N)=O)c2N)cc1 (stereo not given)	–	active: 6.51 µM
COc1ccc(Cn2cnc3c(N)c(C)c(C)cc32)cc1	inactive: 1.96%	–
COc1ccc(-c2nnc(SC(C(=O)c3c[nH]c4ccccc34)c3ccccc3)n2N)cc1OC (stereo not given)	–	inconclusive: 18.4 µM [inhibitor, single point]
CN1[C@@H]2CCC[C@H]1CC(NC(=O)c1nn(C)c3ccccc13)C2 (stereo not given in full)	inactive: 5.03%	–
Cc1ccc(N(C(C)C(=O)N2CCN(Cc3ccccc3)CC2)S(C)(=O)=O)cc1 (stereo not given)	–	inconclusive: 3.26 µM [inhibitor, single point]
Cc1ccc(S(=O)(=O)CCc2ccncc2)cc1	–	inconclusive: 3.26 µM [inhibitor, partial curve, poor fit]
CCN(CC)c1ncnc2sc(C(=O)N3CCN(c4ccccc4)CC3)c(C)c12	–	inconclusive: 29.1 µM [inhibitor, single point]
